# Results are given in words; binding and its absence hold for the method and conditions named. In cells and extracts the contact can be indirect. Some results given as binding are weak or reduced against the parent protein; the word gives no strength.
# Amino acid sequences for entries named in this document (tags omitted). Residues count along the entry.
# UniProt Q9NT62: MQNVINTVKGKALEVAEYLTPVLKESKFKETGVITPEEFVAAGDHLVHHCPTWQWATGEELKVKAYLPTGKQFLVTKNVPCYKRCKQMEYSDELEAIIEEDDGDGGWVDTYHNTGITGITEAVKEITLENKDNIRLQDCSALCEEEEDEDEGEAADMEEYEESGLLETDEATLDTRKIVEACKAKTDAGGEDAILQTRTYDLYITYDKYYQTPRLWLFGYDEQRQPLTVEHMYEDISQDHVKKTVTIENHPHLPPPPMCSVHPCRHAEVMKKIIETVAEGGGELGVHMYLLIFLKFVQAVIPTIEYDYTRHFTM
# UniProt P10909, residues 23-449: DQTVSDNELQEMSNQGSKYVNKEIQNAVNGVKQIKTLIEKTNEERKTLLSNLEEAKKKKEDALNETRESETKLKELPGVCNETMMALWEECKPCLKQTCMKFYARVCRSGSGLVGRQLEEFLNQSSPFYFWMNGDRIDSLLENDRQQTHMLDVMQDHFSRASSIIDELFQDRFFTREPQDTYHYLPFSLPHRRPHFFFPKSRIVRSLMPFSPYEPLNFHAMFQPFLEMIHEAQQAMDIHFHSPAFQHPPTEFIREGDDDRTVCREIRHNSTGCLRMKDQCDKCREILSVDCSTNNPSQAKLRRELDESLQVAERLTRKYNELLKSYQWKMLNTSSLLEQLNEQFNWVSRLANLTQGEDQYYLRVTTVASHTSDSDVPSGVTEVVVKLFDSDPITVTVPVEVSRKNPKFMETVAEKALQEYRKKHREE
# Assays:
# [1] = target: Atg3, expressed from an Atg3 plasmid (UniProt Q9NT62); test: co-IP; LNCaP cells transfected with CLU, Atg3 and LC3 plasmids, treated with 10 uM MG132+CQ; NP40 lysis buffer, 800 ug protein, 4 ug Atg3 antibody or CLU antibody overnight at 4 C, protein-A/G sepharose; western blot
# [2] = target: Clusterin (CLU), expressed from a CLU plasmid (UniProt P10909); test: as above
Substance,binding [1],binding [2]
"Clusterin (CLU), expressed from a CLU plasmid (from UniProt P10909 23-449)",binds,
"Atg3, expressed from an Atg3 plasmid (from UniProt Q9NT62 1-314) (enzyme)",,binds
